Experimental data published in patent US11904042B2, “Hair coloring composition and methods for its application and removal” (HFC Prestige International Holding Switzerland S.a.r.l, priority 2018, dated 2024).

Assays:
[1] = S-19 / perylenes washing test: color (Lab) of colored hair strands after wash cycles
[2] = Example 2A: azo dye in multicomponent kit (Michael addition), color result and wash fastness; conditions: after 15 washes
Method: Pretreatment to Apply Cationic Polymer (PEI, Polyethylenimine) on the Hair Fiber Surface: • 1 ml of PEI solution (0.5% aqueous solution of PEI (MW: 75 kDa) is applied on the hair strand. • The hair strand is dried via blow-dryer, followed by further drying at 40° C. in the oven.
100 mg azo dye is suspended in 1 g THF, and 8.4 g Isododecane (2,2,4,6,6-pentamethylheptane) solution are added as solvent. Subsequently, 200 mg Silmer OH ACR DI-10 polymer (acrylate derivative) and 300 mg Silamine 2972 is added to the reaction mixture. The mixture is stirred at room temperature for 5 min.
1 g of the above prepared formulation is applied on a pre-treated hair tress (as described above) and the polymers are allowed to react to start forming a film immobilizing the added dye. After removing the excess of the formulation, the film forming reaction is completed as the hair tress is dried via a heat blower.

[3] = difference to PEI pretreatment, film former: acrylates, washing 5 times
[4] = difference to PEI pretreatment, film former: silicones, washing 5 times
[5] = film former: acrylates, washing 5 times
[6] = film former: silicones, washing 5 times
[7] = difference to value after PEI pretreatment, film former: acrylates, # wash 0
[8] = difference to value after PEI pretreatment, film former: acrylates, # wash 1
[9] = difference to value after PEI pretreatment, film former: acrylates, # wash 3
[10] = difference to value after PEI pretreatment, film former: acrylates, # wash 6
[11] = difference to value after PEI pretreatment, film former: acrylates, # wash 9
[12] = difference to value after PEI pretreatment, film former: acrylates, # wash 12
[13] = difference to value after PEI pretreatment, film former: acrylates, # wash 15
[14] = difference to value after PEI pretreatment, film former: silicones, # wash 0
[15] = difference to value after PEI pretreatment, film former: silicones, # wash 1
[16] = difference to value after PEI pretreatment, film former: silicones, # wash 3
[17] = difference to value after PEI pretreatment, film former: silicones, # wash 6
[18] = difference to value after PEI pretreatment, film former: silicones, # wash 9
[19] = difference to value after PEI pretreatment, film former: silicones, # wash 12
[20] = difference to value after PEI pretreatment, film former: silicones, # wash 15
[21] = difference to value after PEI pretreatment, no film former, # wash 0
[22] = difference to value after PEI pretreatment, no film former, # wash 5
[23] = film former: acrylates, # wash 0
[24] = film former: acrylates, # wash 1
[25] = film former: acrylates, # wash 3
[26] = film former: acrylates, # wash 6
[27] = film former: acrylates, # wash 9
[28] = film former: acrylates, # wash 12
[29] = film former: acrylates, # wash 15
[30] = film former: silicones, # wash 0
[31] = film former: silicones, # wash 1
[32] = film former: silicones, # wash 3
[33] = film former: silicones, # wash 6
[34] = film former: silicones, # wash 9
[35] = film former: silicones, # wash 12
[36] = film former: silicones, # wash 15

Compound: CCCCC(CCCC)N1C(=O)c2ccc3c4ccc5c6c(ccc(c7ccc(c2c37)C1=O)c64)C(=O)N(C(CCCC)CCCC)C5=O [S-9]
- ΔL [1, 3]: 26.82
- Δa [1, 3]: 49.56
- Δb [1, 3]: 21.33
- ΔL [1, 4]: 20.31
- Δa [1, 4]: 38.19
- Δb [1, 4]: 2.2
- L [1, 5]: 42.95
- a [1, 5]: 51.34
- b [1, 5]: 45.27
- L [1, 6]: 49.46
- a [1, 6]: 39.97
- b [1, 6]: 26.14

Compound: CCCCCCCCC(CCCCCCCC)N1C(=O)c2ccc3c4ccc5c6c(ccc(c7ccc(c2c37)C1=O)c64)C(=O)N(C(CCCCCCCC)CCCCCCCC)C5=O [S-17]
- ΔL [1, 3]: 31.32
- Δa [1, 3]: 57.7
- Δb [1, 3]: 33.43
- ΔL [1, 4]: 35.23
- Δa [1, 4]: 48.59
- Δb [1, 4]: 8.11
- L [1, 5]: 38.45
- a [1, 5]: 59.48
- b [1, 5]: 57.37
- L [1, 6]: 34.54
- a [1, 6]: 50.37
- b [1, 6]: 32.05

Compound: CCCCCCCCCC(CCCCCCCCC)N1C(=O)c2ccc3c4ccc5c6c(cc([N+](=O)[O-])c(c7ccc(c2c37)C1=O)c64)C(=O)N(C(CCCCCCCCC)CCCCCCCCC)C5=O [S-19-nitro]
- ΔL [1, 3]: 45.12
- Δa [1, 3]: 49.26
- Δb [1, 3]: 18.41
- ΔL [1, 4]: 44.69
- Δa [1, 4]: 46.01
- Δb [1, 4]: 19.14
- L [1, 5]: 24.65
- a [1, 5]: 51.04
- b [1, 5]: 42.35
- L [1, 6]: 25.08
- a [1, 6]: 47.79
- b [1, 6]: 43.08

Compound: CCCCCCCCCC(CCCCCCCCC)N1C(=O)c2ccc3c4ccc5c6c(ccc(c7ccc(c2c37)C1=O)c64)C(=O)N(C(CCCCCCCCC)CCCCCCCCC)C5=O [S-19]
- ΔL [1, 3]: 34.70
- Δa [1, 3]: 57.09
- Δb [1, 3]: 32.25
- ΔL [1, 4]: 27.71
- Δa [1, 4]: 45.57
- Δb [1, 4]: 1.95
- ΔL [1, 7]: 39.44
- Δa [1, 7]: 56.66
- Δb [1, 7]: 20.43
- ΔL [1, 8]: 35.99
- Δa [1, 8]: 49.41
- Δb [1, 8]: 28.95
- ΔL [1, 9]: 36.46
- Δa [1, 9]: 46.3
- Δb [1, 9]: 25.73
- ΔL [1, 10]: 33.24
- Δa [1, 10]: 50.49
- Δb [1, 10]: 31.52
- ΔL [1, 11]: 30.86
- Δa [1, 11]: 50.5
- Δb [1, 11]: 30.32
- ΔL [1, 12]: 31.24
- Δa [1, 12]: 51.79
- Δb [1, 12]: 31.35
- ΔL [1, 13]: 31.37
- Δa [1, 13]: 52.51
- Δb [1, 13]: 31.95
- ΔL [1, 14]: 37.38
- Δa [1, 14]: 48.67
- Δb [1, 14]: 27.55
- ΔL [1, 15]: 41.1
- Δa [1, 15]: 47.24
- Δb [1, 15]: 24.27
- ΔL [1, 16]: 29.2
- Δa [1, 16]: 40.07
- Δb [1, 16]: −6.68
- ΔL [1, 17]: 22.3
- Δa [1, 17]: 41.04
- Δb [1, 17]: 0.45
- ΔL [1, 18]: 26.38
- Δa [1, 18]: 36.62
- Δb [1, 18]: 1.4
- ΔL [1, 19]: 18.88
- Δa [1, 19]: 33.36
- Δb [1, 19]: −0.45
- ΔL [1, 20]: 19.74
- Δa [1, 20]: 29.6
- Δb [1, 20]: −4.66
- ΔL [1, 21]: 43.89
- Δa [1, 21]: 47.44
- Δb [1, 21]: 20.41
- ΔL [1, 22]: 15.56
- Δa [1, 22]: 25.79
- Δb [1, 22]: −1.43
- L [1, 23]: 30.33
- a [1, 23]: 58.44
- b [1, 23]: 44.37
- L [1, 24]: 33.78
- a [1, 24]: 51.19
- b [1, 24]: 52.89
- L [1, 25]: 33.31
- a [1, 25]: 48.08
- b [1, 25]: 49.67
- L [1, 26]: 36.53
- a [1, 26]: 52.27
- b [1, 26]: 55.46
- L [1, 27]: 38.91
- a [1, 27]: 52.28
- b [1, 27]: 54.26
- L [1, 28]: 38.53
- a [1, 28]: 53.57
- b [1, 28]: 55.29
- L [1, 29]: 38.40
- a [1, 29]: 54.29
- b [1, 29]: 55.89
- L [1, 5]: 35.07
- a [1, 5]: 58.87
- b [1, 5]: 56.19
- L [1, 30]: 32.39
- a [1, 30]: 50.45
- b [1, 30]: 51.49
- L [1, 31]: 28.67
- a [1, 31]: 49.02
- b [1, 31]: 48.21
- L [1, 32]: 40.57
- a [1, 32]: 41.85
- b [1, 32]: 17.26
- L [1, 33]: 47.47
- a [1, 33]: 42.82
- b [1, 33]: 24.39
- L [1, 34]: 43.39
- a [1, 34]: 38.40
- b [1, 34]: 25.34
- L [1, 35]: 50.89
- a [1, 35]: 35.14
- b [1, 35]: 23.49
- L [1, 36]: 50.03
- a [1, 36]: 31.38
- b [1, 36]: 19.28
- L [1, 6]: 42.06
- a [1, 6]: 47.35
- b [1, 6]: 25.89
- L ([1]; no film former, # wash 0): 25.88
- a ([1]; no film former, # wash 0): 49.22
- b ([1]; no film former, # wash 0): 44.35
- L ([1]; no film former, # wash 5): 54.21
- a ([1]; no film former, # wash 5): 27.57
- b ([1]; no film former, # wash 5): 22.51

Compound: CCN(CCO)c1ccc(/N=N/c2nc(N3CCN(C)CC3)c(C=C3C(=O)c4ccccc4C3=O)s2)cc1 [black azo, 2-[[2-[(E)-[4-[ethyl(2-hydroxyethyl)amino]phenyl]azo]-4-(4-methylpiperazin-1-yl)thiazol-5-yl]methylene]indane-1,3-dione]
- wash fastness observation [2]: moderate

Compound: CCN(CCO)c1ccc(/N=N/c2nc(Cl)c(C=C3C(=O)c4ccccc4C3=O)s2)cc1 [blue azo, 2-{[4-chloro-2-((E)-{4-[ethyl(2-hydroxyethyl)amino]phenyl}diazenyl)-1,3-thiazol-5-yl]methylidene}-1H-indene-1,3(2H)-dione]
- wash fastness observation [2]: very good
